Laboratory results: PubChem BioAssay AID602196 (INSERM, 2012)
This is an unselected part of about 23,000 deposited reagents. Of all reagents, 455 (2%) got an active call. 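Active includes both protection and sensitisation; some change values fall well beyond the stated -50 to +50 range.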 The numbers tell different reagents against one gene apart. Not all columns of the deposit are shown. Reagent sequences are not shown. Not given: the amount of reagent.

Purpose: 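Genes whose knock-down alters cisplatin killing of lung cancer cells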
Cell system: human A549 lung cancer cells
Reagent: siRNA pair against human genes
Time to read-out: 48 h transfection before cisplatin; time from cisplatin to read-out not stated
Treatment: cisplatin at a dose killing half of control-siRNA cells; exact dose and duration not given
Measurement: 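Cisplatin cell death as a shift from the 50% death seen with control siRNA; siRNAs toxic or growth-blocking alone scored 0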
Scale: two-siRNA summed score (-2 to +2): higher = both siRNAs protect from cisplatin killing; -2 means both sensitise; mean protection from cisplatin (shift in death) and protection from cisplatin (shift in death), siRNA C: higher = protection from cisplatin killing
Rule for the call: 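Each siRNA scores 0 if harmful alone by LDH or WST-1, otherwise +1 if it reduces and -1 if it increases cisplatin killing; a gene is active when both siRNAs agree (sum +2 or -2)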
Calls: active = both siRNAs shift cisplatin killing the same way; inactive = no consistent shift, or siRNA harmful alone

The opening 2 entries, ahead of the listing:
| gene | reagent | two-siRNA summed score (-2 to +2) | mean protection from cisplatin (shift in death) (%) | protection from cisplatin (shift in death), siRNA C (%) | activity call |
| --- | --- | --- | --- | --- | --- |
| FREM1 (GeneID 158326) | 1 | 0 | 5.1 | -4.1 | inactive |
| LRWD1 (GeneID 222229) | 1 | 0 | -3.5 | 24.4 | inactive |

The list itself, from the first entry:
| gene | reagent | two-siRNA summed score (-2 to +2) | mean protection from cisplatin (shift in death) (%) | protection from cisplatin (shift in death), siRNA C (%) | activity call |
| --- | --- | --- | --- | --- | --- |
| FREM1 (GeneID 158326) | 1 | 0 | 5.1 | -4.1 | inactive |
| LRWD1 (GeneID 222229) | 1 | 0 | -3.5 | 24.4 | inactive |
| SDC3 (GeneID 9672) | 1 | 0 | 6.1 | 11.4 | inactive |
| ATOSA (GeneID 56204) | 1 | 0 | 5.3 | 4.6 | inactive |
| LOC441759 | 1 | 1 | 42.5 | 39.2 | inactive |
| MPO (GeneID 4353) | 1 | 0 | 3 | 13.4 | inactive |
| PGLYRP4 (GeneID 57115) | 1 | 0 | 3.8 | 0.6 | inactive |
| FLJ46675 | 1 | 0 | 17.4 | 31.3 | inactive |
| WEE1 (GeneID 7465) | 1 | 0 | 8.8 | 12.2 | inactive |
| APBA3 (GeneID 9546) | 1 | 0 | -4.1 | -9.8 | inactive |
| RHBDD2 (GeneID 57414) | 1 | 1 | 11.3 | 19.4 | inactive |
| DDX56 (GeneID 54606) | 1 | 0 | 0.9 | -5.6 | inactive |
| LOC441041 | 1 | 0 | 7.3 | 6.8 | inactive |
| LOC391462 | 1 | 1 | 10.4 | 8.4 | inactive |
| FXYD6 (GeneID 53826) | 1 | 0 | 8.6 | 12.1 | inactive |
| GNB1 (GeneID 2782) | 1 | 0 | -3.5 | -15.5 | inactive |
| TNFRSF10C (GeneID 8794) | 1 | -1 | -7.3 | -21.1 | inactive |
| LOC389341 | 1 | 0 | 6.1 | 22.4 | inactive |
| LOC440186 | 1 | 0 | 9.3 | 7.6 | inactive |
| GPX3 (GeneID 2878) | 1 | 0 | 1.1 | 1.1 | inactive |
| NADK2 (GeneID 133686) | 1 | 0 | 12.3 | 10.5 | inactive |
| TMEM132B (GeneID 114795) | 1 | -2 | -9.8 | -12.7 | active |
| EPX (GeneID 8288) | 1 | 1 | 8.6 | 24.3 | inactive |
| LOC389188 | 1 | 0 | 12.3 | -0.2 | inactive |
| CDR1 (GeneID 1038) | 1 | 0 | 8.4 | 7.3 | inactive |
| MAP10 (GeneID 54627) | 1 | 0 | 2.7 | 1.2 | inactive |
| ITIH5 (GeneID 80760) | 1 | 0 | 16.7 | 22.6 | inactive |
| KCNQ1DN (GeneID 55539) | 1 | 0 | 1.4 | 3.7 | inactive |
| ERGIC2 (GeneID 51290) | 1 | 0 | -2.4 | -5.7 | inactive |
| PBLD (GeneID 64081) | 1 | 0 | 0 | 2.4 | inactive |
| ZNF324B (GeneID 388569) | 1 | 0 | 1.5 | -2.9 | inactive |
| LIN7B (GeneID 64130) | 1 | 1 | 8.1 | -5.4 | inactive |
| ITGB3BP (GeneID 23421) | 1 | -1 | -15.3 | -19.5 | inactive |
| PWWP3B (GeneID 139221) | 1 | 0 | -0.1 | 16 | inactive |
| PAGE5 (GeneID 90737) | 1 | 0 | 1.3 | -3.8 | inactive |
| PAGE5 (GeneID 90737) | 2 | 0 | 4.7 | 0.5 | inactive |
| KREMEN2 (GeneID 79412) | 1 | -1 | -16.5 | -14.6 | inactive |
| PPP1R10 (GeneID 5514) | 1 | 0 | -0.5 | -7.3 | inactive |
| TYR (GeneID 7299) | 1 | -1 | -11 | -17.8 | inactive |
| LINC02609 (GeneID 105378853) | 1 | 1 | 5.1 | -2.6 | inactive |
| SEMA3F (GeneID 6405) | 1 | 0 | 5.7 | -8.2 | inactive |
| LOC255275 | 1 | 0 | 11.6 | 17.4 | inactive |
| GMNN (GeneID 51053) | 1 | -1 | -23.1 | -23.9 | inactive |
| LOC148490 | 1 | 1 | 10.9 | 21.9 | inactive |
| C19orf73 (GeneID 55150) | 1 | 1 | 19.2 | -1.1 | inactive |
| BMP8A (GeneID 353500) | 1 | -1 | -6.6 | -11.8 | inactive |
| LOC441786 | 1 | 1 | 11.2 | 14.2 | inactive |
| HECTD2 (GeneID 143279) | 1 | 0 | 13.2 | 19.7 | inactive |
| POMZP3 (GeneID 22932) | 1 | 0 | -8.6 | -4.5 | inactive |
| LOC388515 | 1 | 1 | 9.1 | 2.1 | inactive |
| CALCRL (GeneID 10203) | 1 | 0 | 7.4 | 9.1 | inactive |
| ZCCHC9 (GeneID 84240) | 1 | 0 | -3.6 | 4.6 | inactive |
| ALPI (GeneID 248) | 1 | 1 | 19.1 | 21.8 | inactive |
| PM20D1 (GeneID 148811) | 1 | 0 | 1.2 | 4 | inactive |
| BFSP1 (GeneID 631) | 1 | 0 | -3.7 | -1.2 | inactive |
| TNFAIP6 (GeneID 7130) | 1 | 0 | 1.7 | 0.7 | inactive |
| SLC7A1 (GeneID 6541) | 1 | -1 | -13 | 0.4 | inactive |
